These are yes or no findings as the source states them, for the method shown. Binding seen in cells or lysates may run through a third protein. Here binding means that the protein was enriched with, or labelled near, the bait; the list need not be complete. For some assays here: A no says only that the protein was not detected with the bait.
T1: SPA-2 (polarisome protein) (N. crassa) (UniProt V5IQM7)
T1 sequence: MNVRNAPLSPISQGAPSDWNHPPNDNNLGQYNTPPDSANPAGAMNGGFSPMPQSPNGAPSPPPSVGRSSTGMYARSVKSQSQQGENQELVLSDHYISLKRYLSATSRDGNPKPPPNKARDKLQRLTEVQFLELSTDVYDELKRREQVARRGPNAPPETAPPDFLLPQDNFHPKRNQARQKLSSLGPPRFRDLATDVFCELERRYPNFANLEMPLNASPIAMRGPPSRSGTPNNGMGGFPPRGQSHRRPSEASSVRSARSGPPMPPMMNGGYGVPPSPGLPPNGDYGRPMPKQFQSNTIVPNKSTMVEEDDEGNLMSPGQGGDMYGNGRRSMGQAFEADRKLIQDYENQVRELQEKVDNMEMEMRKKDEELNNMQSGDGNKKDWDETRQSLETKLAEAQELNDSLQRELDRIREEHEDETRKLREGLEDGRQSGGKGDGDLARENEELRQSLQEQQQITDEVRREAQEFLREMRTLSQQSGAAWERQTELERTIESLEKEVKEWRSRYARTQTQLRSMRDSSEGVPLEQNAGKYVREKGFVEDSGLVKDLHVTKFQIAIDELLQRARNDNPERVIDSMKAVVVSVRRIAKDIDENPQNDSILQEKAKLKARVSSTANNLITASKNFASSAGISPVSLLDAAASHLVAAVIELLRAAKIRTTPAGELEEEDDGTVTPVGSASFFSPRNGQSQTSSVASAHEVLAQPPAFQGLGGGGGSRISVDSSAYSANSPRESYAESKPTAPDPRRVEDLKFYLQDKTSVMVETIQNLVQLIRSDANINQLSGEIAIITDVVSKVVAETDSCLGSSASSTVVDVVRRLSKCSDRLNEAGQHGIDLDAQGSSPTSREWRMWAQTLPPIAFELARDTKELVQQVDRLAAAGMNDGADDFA


How the values were obtained:
Experiment in all cases: affinity purification with mass spectrometry; proteins HA-epitope tagged at their endogenous loci; soluble N. crassa extract in IP buffer (20 mM HEPES pH 7.4, 150 mM KOAc, 2 mM MgCl2, 1 mM DTT); anti-HA DynaBeads, 1 h at 4 °C; washes with Tween-20
[1] = biological target: T1, SPA-2 (polarisome protein) (N. crassa)
[2] = biological target: myosin V motor (MYO-5) (N. crassa)
[3] = biological target: JANUS-1 (JNS-1) (N. crassa) (UniProt Q1K4U3)

binding [1]	binding [2]	binding [3]	Molecule
binds			myosin V motor (MYO-5) (N. crassa)
	binds	binds	SPA-2 (polarisome protein) (protein, UniProt V5IQM7 1-888) MNVRNAPLSPISQGAPSDWNHPPNDNNLGQYNTPPDSANPAGAMNGGFSPMPQSPNGAPSPPPSVGRSSTGMYARSVKSQSQQGENQELVLSDHYISLKRYLSATSRDGNPKPPPNKARDKLQRLTEVQFLELSTDVYDELKRREQVARRGPNAPPETAPPDFLLPQDNFHPKRNQARQKLSSLGPPRFRDLATDVFCELERRYPNFANLEMPLNASPIAMRGPPSRSGTPNNGMGGFPPRGQSHRRPSEASSVRSARSGPPMPPMMNGGYGVPPSPGLPPNGDYGRPMPKQFQSNTIVPNKSTMVEEDDEGNLMSPGQGGDMYGNGRRSMGQAFEADRKLIQDYENQVRELQEKVDNMEMEMRKKDEELNNMQSGDGNKKDWDETRQSLETKLAEAQELNDSLQRELDRIREEHEDETRKLREGLEDGRQSGGKGDGDLARENEELRQSLQEQQQITDEVRREAQEFLREMRTLSQQSGAAWERQTELERTIESLEKEVKEWRSRYARTQTQLRSMRDSSEGVPLEQNAGKYVREKGFVEDSGLVKDLHVTKFQIAIDELLQRARNDNPERVIDSMKAVVVSVRRIAKDIDENPQNDSILQEKAKLKARVSSTANNLITASKNFASSAGISPVSLLDAAASHLVAAVIELLRAAKIRTTPAGELEEEDDGTVTPVGSASFFSPRNGQSQTSSVASAHEVLAQPPAFQGLGGGGGSRISVDSSAYSANSPRESYAESKPTAPDPRRVEDLKFYLQDKTSVMVETIQNLVQLIRSDANINQLSGEIAIITDVVSKVVAETDSCLGSSASSTVVDVVRRLSKCSDRLNEAGQHGIDLDAQGSSPTSREWRMWAQTLPPIAFELARDTKELVQQVDRLAAAGMNDGADDFA

The next lines start with the molecule.

Molecule	binding [1]	binding [2]	binding [3]
GYP-3 (single N. crassa Msb homolog)	no binding		
JANUS-1 (JNS-1) (from UniProt Q1K4U3)	binds		

— publication PMC7275032
